Percent effect of library compounds

Protein sequences, listed by entry. Tags and fused reporters are not part of them. Residues count along the entry.
UniProt I6X8D2, whole entry: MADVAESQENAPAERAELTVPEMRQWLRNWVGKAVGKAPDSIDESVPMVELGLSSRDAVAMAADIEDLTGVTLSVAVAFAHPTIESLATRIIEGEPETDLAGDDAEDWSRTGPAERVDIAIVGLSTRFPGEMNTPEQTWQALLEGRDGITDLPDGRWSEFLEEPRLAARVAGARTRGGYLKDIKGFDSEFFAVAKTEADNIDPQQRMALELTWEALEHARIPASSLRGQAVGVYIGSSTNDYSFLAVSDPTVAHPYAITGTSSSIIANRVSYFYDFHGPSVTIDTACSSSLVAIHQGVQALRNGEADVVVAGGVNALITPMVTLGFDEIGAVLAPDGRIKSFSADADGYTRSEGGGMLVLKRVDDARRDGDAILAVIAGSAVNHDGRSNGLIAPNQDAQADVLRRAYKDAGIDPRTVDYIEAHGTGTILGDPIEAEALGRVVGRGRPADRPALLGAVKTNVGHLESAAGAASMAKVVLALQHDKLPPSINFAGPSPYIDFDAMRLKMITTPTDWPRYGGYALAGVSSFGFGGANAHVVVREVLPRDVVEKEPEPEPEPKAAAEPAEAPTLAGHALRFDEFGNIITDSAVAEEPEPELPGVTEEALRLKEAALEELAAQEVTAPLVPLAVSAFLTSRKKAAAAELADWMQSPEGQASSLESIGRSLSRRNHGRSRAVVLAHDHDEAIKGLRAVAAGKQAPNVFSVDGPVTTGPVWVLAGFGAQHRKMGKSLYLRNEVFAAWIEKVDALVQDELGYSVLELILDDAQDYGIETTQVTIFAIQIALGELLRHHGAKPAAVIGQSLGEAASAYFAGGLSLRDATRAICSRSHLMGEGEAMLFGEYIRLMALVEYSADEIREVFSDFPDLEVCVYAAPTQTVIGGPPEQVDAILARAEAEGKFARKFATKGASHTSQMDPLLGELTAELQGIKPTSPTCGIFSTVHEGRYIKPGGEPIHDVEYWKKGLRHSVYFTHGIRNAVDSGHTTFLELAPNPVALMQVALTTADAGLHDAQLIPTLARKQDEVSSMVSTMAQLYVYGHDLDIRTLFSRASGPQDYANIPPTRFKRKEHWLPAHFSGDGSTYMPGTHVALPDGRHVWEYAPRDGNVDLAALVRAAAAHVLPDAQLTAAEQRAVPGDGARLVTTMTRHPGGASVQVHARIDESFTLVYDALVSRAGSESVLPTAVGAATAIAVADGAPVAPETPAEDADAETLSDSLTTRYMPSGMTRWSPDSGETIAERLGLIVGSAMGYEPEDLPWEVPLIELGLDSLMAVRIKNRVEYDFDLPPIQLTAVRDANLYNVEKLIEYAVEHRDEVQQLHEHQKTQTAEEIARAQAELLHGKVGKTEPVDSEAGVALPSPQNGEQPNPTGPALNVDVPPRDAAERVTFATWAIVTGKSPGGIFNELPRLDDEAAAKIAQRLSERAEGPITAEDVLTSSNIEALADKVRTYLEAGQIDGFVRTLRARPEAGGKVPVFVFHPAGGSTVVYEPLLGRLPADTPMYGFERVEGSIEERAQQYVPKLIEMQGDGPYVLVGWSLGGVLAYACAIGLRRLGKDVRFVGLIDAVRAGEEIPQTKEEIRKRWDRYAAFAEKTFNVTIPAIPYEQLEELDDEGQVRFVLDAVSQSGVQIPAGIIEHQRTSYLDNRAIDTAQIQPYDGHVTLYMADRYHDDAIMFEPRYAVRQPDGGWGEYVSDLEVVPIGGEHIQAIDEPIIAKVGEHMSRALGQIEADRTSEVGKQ
UniProt Q8IDJ8, 1-583: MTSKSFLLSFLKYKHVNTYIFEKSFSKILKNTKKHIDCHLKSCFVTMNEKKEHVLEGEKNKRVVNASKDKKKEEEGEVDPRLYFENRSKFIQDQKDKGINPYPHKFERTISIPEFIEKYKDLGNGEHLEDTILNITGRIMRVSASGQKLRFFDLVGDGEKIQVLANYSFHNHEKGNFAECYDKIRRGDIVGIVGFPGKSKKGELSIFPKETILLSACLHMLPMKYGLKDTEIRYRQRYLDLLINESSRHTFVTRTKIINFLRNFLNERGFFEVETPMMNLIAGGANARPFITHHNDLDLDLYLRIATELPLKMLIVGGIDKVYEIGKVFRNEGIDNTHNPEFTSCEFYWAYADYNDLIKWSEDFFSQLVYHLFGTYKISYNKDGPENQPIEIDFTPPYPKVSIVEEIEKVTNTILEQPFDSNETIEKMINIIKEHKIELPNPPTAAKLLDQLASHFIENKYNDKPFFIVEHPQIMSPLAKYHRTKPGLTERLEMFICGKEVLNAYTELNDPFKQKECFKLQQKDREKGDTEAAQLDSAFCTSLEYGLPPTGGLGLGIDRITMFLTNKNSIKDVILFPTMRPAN
UniProt A4I591, 1-473: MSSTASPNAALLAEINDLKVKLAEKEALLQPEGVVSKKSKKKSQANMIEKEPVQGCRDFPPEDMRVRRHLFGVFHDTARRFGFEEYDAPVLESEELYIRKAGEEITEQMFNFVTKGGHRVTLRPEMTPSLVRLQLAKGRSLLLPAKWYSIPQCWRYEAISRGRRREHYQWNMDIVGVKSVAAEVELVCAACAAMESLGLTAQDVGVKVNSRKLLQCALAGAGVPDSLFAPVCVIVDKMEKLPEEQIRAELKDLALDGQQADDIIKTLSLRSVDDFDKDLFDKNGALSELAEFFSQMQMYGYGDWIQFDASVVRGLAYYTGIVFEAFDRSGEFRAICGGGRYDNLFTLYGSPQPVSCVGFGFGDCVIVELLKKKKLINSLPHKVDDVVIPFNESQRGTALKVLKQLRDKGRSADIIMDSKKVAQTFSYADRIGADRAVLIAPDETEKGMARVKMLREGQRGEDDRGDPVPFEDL
UniProt P9WFT3, whole entry: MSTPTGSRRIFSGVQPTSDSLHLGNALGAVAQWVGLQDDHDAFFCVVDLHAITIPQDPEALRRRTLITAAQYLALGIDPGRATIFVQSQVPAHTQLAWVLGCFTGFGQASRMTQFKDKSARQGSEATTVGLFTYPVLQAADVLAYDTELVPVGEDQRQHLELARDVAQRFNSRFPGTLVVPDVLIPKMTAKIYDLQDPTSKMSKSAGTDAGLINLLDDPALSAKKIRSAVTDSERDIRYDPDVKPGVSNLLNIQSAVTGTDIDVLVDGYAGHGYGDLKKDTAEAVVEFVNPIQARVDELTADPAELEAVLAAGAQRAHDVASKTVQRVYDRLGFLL

A: 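Polyketide synthase Pks13, Mycobacterium tuberculosis (UniProt I6X8D2). Enzyme assay of the thioesterase domain of polyketide synthase 13; the read-out is not stated. Concentration: 30 µM. Higher reads as stronger inhibition (inferred from which compounds were picked for retests). About 67,000 compounds were tested under these conditions; 0.46% (about 300) showed 50% or more at least once.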
B: 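Lysine-tRNA ligase, Plasmodium falciparum 3D7 (UniProt Q8IDJ8). Enzyme assay of the cytosolic lysyl-tRNA synthetase in 384-well plates, read by luminescence. Compounds at 30 µM. Direction is inferred from only a few compounds that gave an IC50; most scored high, so higher reads as stronger inhibition. Of about 69,000 compounds tested this way, about 49 (0.071%) reached 50% or more in at least one test.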
C: 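Enzyme assay of histidyl-tRNA synthetase; the read-out is not stated. Target: Histidine-tRNA ligase, Leishmania infantum (UniProt A4I591). Tested at 30 µM. The record gives no direction; compounds that gave an IC50 in retests scored well above the rest, so higher reads as stronger inhibition. The assay is labelled LdHisRS but filed under L. infantum. About 69,000 compounds were tested under these conditions; 0.6% (about 410) showed 50% or more at least once.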
D: 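Tryptophan-tRNA ligase, Mycobacterium tuberculosis (UniProt P9WFT3). Enzyme assay of tryptophanyl-tRNA synthetase; the read-out is not stated. Compounds at 10 µM. Direction is not recorded; retested compounds ran higher, which suggests that high means inhibition. About 65,000 compounds were tested under these conditions; 0.098% (about 64) showed 50% or more at least once.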

Results are given as percent effect. The record does not define 0% and 100%; most values in the screen are far below 50% and negative numbers occur (in some assays of this library far below -100). This is an unselected part of the compounds tested. A dash means the value is not listed here; it may have been measured.

| structure | A | B | C | D |
|---|---|---|---|---|
| `COc1ccc(-n2cnc(Cl)c2CO)cc1` | -0.4348 | 2.464 | 20.21 | 3.484 |
| `CC(=O)Nc1ccc(C(=O)N2CCOc3nc(C)ccc32)cc1` | 2.986 | 5.116 | 17.2 | 2.179 |
| `Cc1nc(-c2ccsc2)sc1C(=O)N1CCn2c(C)nnc2C1` | - | 8.478 | 17.54 | -4.479 |
| `CS(=O)(=O)N1CCCC12CCCN(S(=O)(=O)c1ccc(F)cc1)C2` (stereo not drawn) | -6.818 | -0.3446 | 11.32 | -3.353 |
| `Cn1nc(C(=O)NC2CC2)cc1NC(=O)C1CC1` | -12.27 | 0.5652 | 23.53 | -2.676 |
| `CCOc1ccc(CN2CCC3(CC2)CNC(=O)C3)cn1` | -25.81 | -2.253 | 3.419 | -5.068 |
| `COCCN1C(=O)CO[C@H]2CN(Cc3c[nH]nc3-c3ccccc3)C[C@@H]21` | -33.58 | 2.342 | 8.333 | -4.264 |
| `CCC(NC(=O)c1nn(C)cc1C(=O)O)c1ccccc1` (stereo not drawn) | 1.29 | 2.832 | 10.31 | - |
| `Cc1cccc(N2CCOCC3(C2)CN(c2cnn(C)c2)C(=O)CO3)n1` (stereo not drawn) | -42.32 | -0.9512 | 5.769 | - |
| `CC(C)CCN1CCNC(=O)C1CC(=O)N1CCc2sccc2C1` (stereo not drawn) | -18.62 | -0.5691 | -2.83 | 3.728 |
| `Cc1cc(=O)[nH]c(-n2nc(C3CC3)cc2N)n1` | -6.532 | 5.551 | 20.51 | -6.863 |
| `CCS(=O)(=O)c1ccc2c(c1)OCCCO2` | -22.64 | 0.08877 | -52.11 | -0.9828 |
| `CC(C)c1noc(CCC(=O)NC(C)c2nnc3n2CCCCC3)n1` (stereo not drawn) | -7.223 | 4.924 | 3.774 | 0.1676 |
| `Cc1ccc(C(=O)NS(=O)(=O)c2ccccc2F)c(=O)[nH]1` | -4.799 | 0.5932 | 3.636 | 14.23 |
| `Cc1cc(C(=O)N2CC[C@H]3[C@@H]2CCC(=O)N3c2ccccc2)no1` | 3.721 | -0.8007 | 7 | 2.502 |
| `CN(C)S(=O)(=O)c1ccc(CN2CCC(c3ccccc3)C2)o1` (stereo not drawn) | -20.37 | -3.309 | 10.34 | 15.03 |
| `Cc1ccc(CN2CCCC3(CCCC(=O)N3)C2)s1` (stereo not drawn) | -17.83 | 2.753 | 13.59 | -4.931 |
| `Cc1csc(C(=O)N2CC(S(=O)(=O)C3CCCCC3)C2)c1` | -2.976 | 2.253 | 6.667 | 2.77 |
| `Cc1ccc(-c2nc(CN3CCN(CCO)CC3)co2)cc1` | -18.6 | 0.4149 | 7.692 | 5.221 |
| `COc1cc(CN2CCCC2)ccc1Oc1ccc2c(c1)CC(CN)O2` (stereo not drawn) | 6.996 | 0.5427 | 10.83 | -1.013 |
| `CC(NC(=O)N1CCN(c2ccc(Cl)cc2)CC1)C(=O)N1CCSCC1` (stereo not drawn) | 13.47 | 10.76 | 19.05 | 1.587 |
| `N#Cc1c(CN2CCCC2Cn2cncn2)cn2ccccc12` (stereo not drawn) | 15.83 | 5.329 | 18.75 | -5.289 |
| `CN(C)c1cc2c(nn1)CCN(C(=O)c1cc3c(s1)CCCC3)C2` | -56.75 | -0.5376 | 39.67 | -0.6255 |
| `CN1C(=O)C2(CC(=O)Nc3c2cnn3C(C)(C)C)c2ccccc21` (stereo not drawn) | -9.135 | 5.571 | 5 | -2.305 |
| `CCc1nc2c(NCC3COc4ccccc4C3)ncnc2o1` (stereo not drawn) | -7.802 | 5.257 | 8.602 | 0.9054 |
| `O=S1(=O)CCC(c2nc(-c3cccc(Br)c3)no2)C1` (stereo not drawn) | -12.19 | 6.497 | 12.7 | -3.187 |
| `Cc1ccc(C(CNCc2nccn2C)N2CCOCC2)s1` (stereo not drawn) | -0.1335 | 2.123 | -0.8929 | -0.6353 |
| `CCCN(C)c1ccc(C(=O)Nc2c(C)nn(C(C)C)c2C)cc1` | 6.242 | 3.652 | 16.13 | 1.616 |
| `Cc1c(NC(=O)NC2CCOCC2)cccc1C(=O)N1CCCC1` | -7.408 | -3.723 | -1.099 | 1.694 |
| `CCN(C(=O)C(C)S(=O)(=O)Cc1nc(C)no1)c1ccccc1` (stereo not drawn) | 10.87 | 5.774 | 22.22 | 3.985 |
| `Cc1nn(CC(C)C)c(N(C)C)c1CNCc1cccnc1N(C)C` | -7.39 | 1.276 | 11.9 | 1.174 |
| `Clc1cccc(-n2cnnn2)c1N1CCCC1` | -8.157 | -1.865 | 6.195 | -3.614 |
| `CCOCC1CC2(CCN(C(=O)C3CCSCC3)CC2)CO1` (stereo not drawn) | 5.308 | -1.028 | -0.8547 | 15.73 |
| `Cc1nc2cc(C3CCN(Cc4cccc(F)c4F)C3)nn2c(O)c1C` (stereo not drawn) | -46.2 | 3.514 | 22.22 | 1.421 |
| `COCCN1CCc2cc(C(=O)O)c(NCC3CC3)nc2CC1` | -19.69 | -0.301 | 4.167 | 8.802 |
| `O=S(=O)(Cc1ccccc1F)NCCCN1CCCCC1` | -15.51 | -1.557 | 18.45 | 0.8881 |
| `Cc1ccc(F)c2c1N(C(=O)Cc1c(C)nn(C)c1C)CCC2` | -29.85 | 0.5181 | 15 | -2.233 |

For reference, 2 entries once more:

{"structure": "CCc1nc2c(NCC3COc4ccccc4C3)ncnc2o1", "stereo": "stereo not drawn", "A": -7.802, "B": 5.257, "C": 8.602, "D": 0.9054}
{"structure": "CS(=O)(=O)N1CCCC12CCCN(S(=O)(=O)c1ccc(F)cc1)C2", "stereo": "stereo not drawn", "A": -6.818, "B": -0.3446, "C": 11.32, "D": -3.353}

Measurements from “University of Dundee, Small-Polar-MMV Screening Library” (2021), ChEMBL document CHEMBL3988442.